Test results taken from patent US20240360202A1.
Results are given in words; binding and its absence hold for the method and conditions named. For some assays here: Binding can be weak; no strength is given.

Assays:
[1] = target: HLA-A2 on the cell lines of FIG. 3 (human); assay: flow cytometry (MFI) on a panel of cell lines; mAb at 3 ug/ml, plotted against BB7 (HLA-A2) MFI
[2] = target: HLA-A2 on the cell lines of FIG. 3 (human); assay: flow cytometry (MFI) on a panel of cell lines; mAb plotted against BB7 (HLA-A2) MFI

binding [1]	binding [2]	Binder
binds		mAb 2A5 (antibody, V domains shown) VH: EVQLVQSGGGLVKPGGSLRLSCAASGFTFSDYYMSWIRQAPGKGLEWVSYISSSGSTIYYADSVKGRFTISRDNAKNSLYLQMNSLRAEDTAVYYCARGPLTADAFDIWGQGTMVTVSS VL: QSVLTQPPSASGTPGQRVTISCSGSSSNIGSNTVNWYQQLPGTAPKLLIYNNNQRPSGVPDRFSGSKSGTSAALAISGLQSEDEADYHCATWDDTRNGPEFGGGTKLTVL
	no binding (tested: 3 ug/ml)	mAb 3F8 (antibody, V domains shown) VH: EVQLLESGGGLVQPGGSLRLSCAASGFTFSDYYMSWVRQAPGKGLEWVSGIYGGGGSTRYADSVKGRFTISRDNSKNTLYLQMNSLRAEDTAVYYCAKDRWGYSSGWHNFDFWGQGTLVTVSS VL: DIVMTQSPDSLAVSLGERATINCKSSQSVLRSGNNKNDLAWYQQKPGQPPKLLIYWASTRESGVPDRFSGSGSGTDFTLTISSLQAEDVAVYYCQQSSSEPITFGQGTKVEIK
